In ChEMBL document CHEMBL3301458, “MMV Malaria Box hERG screening”:
Activity calls are given as the source filed them. No rule for the calls is given here.

Protein sequences, listed by entry. Tags and fused reporters are not part of them. Lines headed by an entry give the natural chain unless they say otherwise; changes in a name come on top.
UniProt Q12809: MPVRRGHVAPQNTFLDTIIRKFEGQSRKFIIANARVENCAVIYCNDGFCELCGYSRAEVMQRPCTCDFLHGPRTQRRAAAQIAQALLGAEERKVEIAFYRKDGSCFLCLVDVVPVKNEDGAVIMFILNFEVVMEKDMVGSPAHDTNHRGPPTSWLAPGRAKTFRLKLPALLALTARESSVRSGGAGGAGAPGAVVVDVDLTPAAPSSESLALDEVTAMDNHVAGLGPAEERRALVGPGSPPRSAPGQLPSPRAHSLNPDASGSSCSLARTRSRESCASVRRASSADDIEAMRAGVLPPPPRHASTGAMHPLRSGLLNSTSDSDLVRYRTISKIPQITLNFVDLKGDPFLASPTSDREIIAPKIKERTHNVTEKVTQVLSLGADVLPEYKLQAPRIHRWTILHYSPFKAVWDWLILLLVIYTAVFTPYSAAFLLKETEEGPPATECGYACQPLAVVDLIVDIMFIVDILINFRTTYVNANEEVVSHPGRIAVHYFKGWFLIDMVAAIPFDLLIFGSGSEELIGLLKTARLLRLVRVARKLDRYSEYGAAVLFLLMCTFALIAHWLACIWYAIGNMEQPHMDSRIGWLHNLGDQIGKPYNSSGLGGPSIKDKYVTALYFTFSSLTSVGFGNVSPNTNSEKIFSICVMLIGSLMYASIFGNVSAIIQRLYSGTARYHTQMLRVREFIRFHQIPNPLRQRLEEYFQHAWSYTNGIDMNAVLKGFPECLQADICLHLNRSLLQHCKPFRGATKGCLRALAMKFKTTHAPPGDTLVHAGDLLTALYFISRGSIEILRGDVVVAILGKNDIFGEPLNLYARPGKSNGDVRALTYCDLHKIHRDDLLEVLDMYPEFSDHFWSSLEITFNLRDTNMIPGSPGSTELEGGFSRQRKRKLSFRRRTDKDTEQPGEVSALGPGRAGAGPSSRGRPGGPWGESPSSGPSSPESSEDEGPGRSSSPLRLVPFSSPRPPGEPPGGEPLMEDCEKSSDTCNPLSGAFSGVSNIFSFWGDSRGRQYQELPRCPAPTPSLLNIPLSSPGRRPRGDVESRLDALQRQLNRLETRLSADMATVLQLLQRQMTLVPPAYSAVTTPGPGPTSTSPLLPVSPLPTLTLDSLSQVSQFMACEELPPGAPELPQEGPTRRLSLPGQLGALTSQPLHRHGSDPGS

Legend:
hERG (Kv11.1, KCNH2) [1] = target: T1, hERG (Kv11.1, KCNH2) (Homo sapiens, UniProt Q12809); assay: in vitro
hERG (Kv11.1, KCNH2) [2] = target: T1, hERG (Kv11.1, KCNH2); assay: in vitro; remark: listed apart in the source

C=CC12CCN(CC1)C(C(O)c1ccnc3ccc(OC)cc13)C2 (configuration not stated)
inhibition at 1.1 µM (hERG (Kv11.1, KCNH2) [1]): 20%
inhibition at 11.1 µM (hERG (Kv11.1, KCNH2) [2]): active: 84%
